Tested on: activated sludge
Test: Biodegradability test (OECD Test Guidelines 301C, JIS K6950)
Conditions: high-concentration group (100 ppm)

In the case of Nc1ccccc1 [aniline], the “biodegradation ratio for 28 days (individual runs, n=2)” value (25° C.) is reported as no less than 60% and the “degradability decision (60% or more = good degradable)” value (28 days) is reported as “good degradability”.

Reference: patent US10119079B2, “Composition for removal of sulfur-containing compounds” (KURARAY CO., LTD., priority 2014, dated 2018)
